Laboratory results from PubChem BioAssay AID445 (National Center for Advancing Translational Sciences (NCATS), 2006).
Several values for one entry are separate records, joined by “and”; a condition that tells them apart may be missing. Equal entries are not always repeated. Some of the results follow. Further columns of the screen follow, without active or inactive calls. Compounds called inactive in the main read-out are mostly missing here. Words in brackets tell the shape of the fitted curve; partial curves, single points and poor fits give uncertain potencies.

Test: IkB Signaling
Settings: ABC-DLBCL IkBa-CBG/CBR dual luciferase ratio (green luciferase fused to IkBa over red control in OCI-Ly3 lymphoma cells), 4 h
In short: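 In this assay, an IκBα–CBG68 fusion accumulates when IKK-driven degradation is blocked; native CBR normalizes for cell number. OCI-Ly3 cells were treated 4 h with compound and doxycycline, then green and red light read after Chroma-Glo addition.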

[1] = measured here: control luc red channel unless noted
[2] = measured here: IkB-luc green channel
[3] = measured here: control luc red channel

Fc1ccc(Nc2c(-c3ccco3)nc3ccccn23)cc1
AC50 [1]: 10 µM [falling, partial curve]

Cn1c(=O)c(=O)n(C)c2cc(S(=O)(=O)Nc3ccc(Cl)c(C(F)(F)F)c3)ccc21
AC50 [1]: 10 µM [falling, partial curve]

CC(C)(C)c1ccc(C(=O)N2CCN(Cc3cc(=O)n4nc(-c5ccccc5F)sc4n3)CC2)cc1
AC50 [1]: 0.0251 µM [falling, full curve]

O=C(OCN1C(=O)c2ccccc2C1=O)c1ccc2c(=O)n3c(nc2c1)CCC3
AC50 [1]: 15.8 µM [rising, partial curve]

Clc1ccc(-c2nnn3c2nc(NCc2ccc4c(c2)OCO4)c2ccccc23)cc1
AC50 [1]: 0.2 µM [falling, full curve]

CCc1cccc(NC(=O)CS(=O)Cc2nc(-c3ccc(C)cc3)oc2C)c1 (stereo not drawn)
AC50 [1]: 20 µM [falling, partial curve]

CCCCNC(=O)CC1N=C2c3ccccc3N=C(SCC(=O)NCc3ccccc3Cl)N2C1=O (stereo not drawn)
AC50 [1]: 39.8 µM [falling, single point]

Cc1ccc(NC(=O)CCC(=O)N2CCSc3ccccc32)cc1
AC50 [1]: 39.8 µM [falling, single point]

COc1cccc(C(=O)Nc2cccc(OCc3cc(=O)n4cccc(C)c4n3)c2)c1
AC50 [1]: 2 µM [falling, partial curve]

COC(=O)c1ccc(NC(=O)CC2C(=O)N(c3ccc(C)cc3)C(=O)N2Cc2ccc(OC)cc2)cc1 (stereo not drawn)
AC50 [1]: 25.1 µM [falling, partial curve]

CCc1ccccc1Nc1cc(C(=O)NCCCN(C)C2CCCCC2)c2ccccc2n1
AC50 [1]: 20 µM [falling, single point]

Cc1ccc(C)c(N2CCN(C(=O)c3nn(C)c4c3CS(=O)(=O)c3ccccc3-4)CC2)c1
AC50 [1]: 12.6 µM [falling, partial curve]

Cc1ccn2c(Nc3ccccc3C)c(-c3cccnc3)nc2c1
AC50 [1]: 39.8 µM [falling, single point]

COc1cccc(C(=O)Nc2ncc3c(n2)CC(C)(C)CC3=O)c1
AC50 [1]: 5.01 µM [falling, full curve]

O=C(CCn1ccc2cc(S(=O)(=O)N3CCCC3)ccc21)NCc1ccccc1Cl
AC50 [1]: 39.8 µM [falling, single point]

COc1cccc(-c2nnc3sc(CN4CCCCC4)cn23)c1
AC50 [1]: 12.6 µM [rising, partial curve]

CCC1CCCCN1C(=O)Cn1c(=O)n(CCCCCC(=O)NCc2ccccc2Cl)c(=O)c2sccc21 (stereo not drawn)
AC50 [1]: 39.8 µM [falling, partial curve]

O=C(NCCc1ccc(Cl)cc1)c1ccc2c(c1)N(Cc1cccc(Cl)c1)C(=O)c1ccccc1S2(=O)=O
AC50 [1]: 3.16 µM [rising, partial curve, poor fit]

c1ccc(C(Cc2nc(-c3ccncc3)no2)c2ccccc2)cc1
AC50 [1]: 3.98 µM [falling, partial curve]

CCCc1cc(N2CCN(c3ccc(OC)cc3)CC2)n2cnnc2n1
AC50 [1]: 12.6 µM [falling, partial curve, poor fit]

COc1ccccc1-c1nc(SCC(=O)Nc2ccc(C)c(C)c2)n[nH]1
AC50 [1]: 15.8 µM [falling, partial curve]

CCOC(=O)c1c(-c2cccs2)csc1NC(=O)CSc1ncn[nH]1
AC50 [1]: 12.6 µM [falling, partial curve]

Cc1sc2ncn(CC(=O)N(C)c3cccc(C(F)(F)F)c3)c(=O)c2c1S(=O)(=O)N1CCN(c2ncccn2)CC1
AC50 [1]: 0.00631 µM [rising, full curve, poor fit]

CCN(CC)C(=O)COc1ccc(-c2nnc(Nc3ccc(OC)c(C(=O)NC)c3)c3ccccc23)cc1
AC50 [1]: 15.8 µM [falling, partial curve]

CC(NC(=O)c1cccs1)C(c1cccs1)N1CCN(c2ccccc2)CC1 (stereo not drawn)
AC50 [1]: 25.1 µM [falling, partial curve]

COc1ccc(/C=C\C(=O)Nc2ccccc2C(=O)O)cc1OC
AC50 [2]: 2.51 µM [rising, full curve, poor fit]
AC50 [3]: 2.51 µM [falling, full curve] and 398 nM [falling, full curve]

CCc1cccc(C)c1NC(=O)C(CC)Sc1nncn2c1cc1occc12 (stereo not drawn)
AC50 [1]: 25.1 µM [falling, partial curve]

CCS(=O)(=O)N1CCc2cc(C(=O)Nc3cc(OC)c(Cl)cc3OC)ccc21
AC50 [1]: 25.1 µM [falling, single point]

Cc1ccc(Nc2nc(C)c(NC(=O)c3ccc(C)cc3)c(Nc3ccc(C)cc3)n2)cc1
AC50 [1]: 10 µM [falling, partial curve]

COc1ccc(NC(=O)c2oc3ccccc3c2NC(=O)COc2ccc(F)cc2)c(OC)c1
AC50 [1]: 3.98 µM [rising, partial curve]

CCCNc1nc2c(c(=O)n(C)c(=O)n2C)n1CC(O)COc1ccccc1 (stereo not drawn)
AC50 [1]: 39.8 µM [falling, partial curve]

Cc1ccc(NC(=O)Cn2cc(C(=O)C3CCCCC3)c3ccccc32)c(C)c1
AC50 [1]: 7.94 µM [falling, full curve]

Cn1c(=O)n(C)c2cc(NS(=O)(=O)c3ccc(C(C)(C)C)cc3)c(NCc3ccccc3)cc21
AC50 [1]: 10 µM [falling, partial curve]

Cc1cccc(C(=O)Nc2nnc(S(=O)(=O)N3CCCc4ccccc43)s2)c1
AC50 [1]: 10 µM [falling, partial curve]

Fc1ccc(N2CCN(C(c3cccs3)c3nnnn3C3CCCC3)CC2)cc1 (stereo not drawn)
AC50 [1]: 15.8 µM [falling, partial curve]

Cc1ccc(-c2nnc(Nc3cccc(Br)c3)c3ccccc23)cc1S(=O)(=O)NCC1CCCO1 (stereo not drawn)
AC50 [1]: 1.26 µM [falling, partial curve]

CCC(C(=O)Nc1cccc(C#N)c1)n1nc(-c2ccccc2)ccc1=O (stereo not drawn)
AC50 [1]: 31.6 µM [falling, single point]

O=C(c1ccc2c(c1)N(Cc1ccc(Cl)cc1)C(=O)c1ccccc1S2(=O)=O)N1CCc2ccccc21
AC50 [1]: 20 µM [falling, partial curve, poor fit]

COc1ccc(-c2cc(C(=O)N3CCCc4ccccc43)no2)cc1
AC50 [1]: 12.6 µM [falling, partial curve]

CCOc1ccc(C2C(=O)N(C3CCCCCC3)CC(=O)N2CCc2ccc(Cl)cc2)cc1OC (stereo not drawn)
AC50 [1]: 39.8 µM [falling, partial curve]

Cc1cccc(CN2C(=O)c3ccccc3Sc3ccc(C(=O)NCc4cccs4)cc32)c1
AC50 [1]: 7.94 µM [falling, full curve]

COc1ccc(-c2noc(CN(C)S(=O)(=O)c3ccc(Cl)cc3)n2)cc1OC
AC50 [1]: 15.8 µM [falling, partial curve]

CCOC(=O)c1c(C)n(-c2ccccc2)c2ccc(OC(=O)c3cc(OC)cc(OC)c3)cc12
AC50 [1]: 20 µM [rising, partial curve]

CCc1ccc(NC(=O)c2cc(C)nn2-c2ccccc2)cc1
AC50 [1]: 20 µM [falling, partial curve]

COc1cc2oc(-c3ccccc3)cc(=O)c2cc1O
AC50 [2]: 5.01 µM [rising, single point]
AC50 [3]: 6.31 µM [rising, single point]

CCOC(=O)c1c(NC(=O)c2cc3ccccc3c(=O)o2)sc2c1CCC(C(C)(C)C)C2 (stereo not drawn)
AC50 [1]: 2.51 µM [falling, full curve]

O=c1c2ccccc2nc(N2CCN(c3cccc(Cl)c3)CC2)n1-c1ccccc1
AC50 [1]: 31.6 µM [falling, single point]

Cc1c(CC(C)(C)C(=O)O)n(Cc2ccc(Cl)cc2)c2ccc(F)cc12
AC50 [1]: 31.6 µM [falling, partial curve]

COC(=O)c1cccc(CN2C(=O)SC(Nc3ccc(Cl)cc3)C2=O)c1 (stereo not drawn)
AC50 [1]: 20 µM [falling, partial curve]

COc1ccc(Nc2c3c(nc4nncn24)CCC3)cc1Cl
AC50 [1]: 25.1 µM [falling, single point]

O=C(Nc1ccccc1C(F)(F)F)N1CCC2(CC1)Oc1ccccc1C(=O)N2Cc1ccccc1F
AC50 [1]: 15.8 µM [falling, partial curve]

CCCCOc1ccccc1NC(=O)CSc1nnnn1C(C)(C)C
AC50 [1]: 12.6 µM [falling, partial curve]

CCCc1cc(=O)[nH]c(Nc2ccc(C)c(O)c2)n1
AC50 [1]: 0.00501 µM [rising, full curve]

CCCCOc1ccc(C(=O)Nc2nc3c(s2)CC(C)CC3)cc1 (stereo not drawn)
AC50 [1]: 6.31 µM [falling, partial curve]

COCCNC(=O)c1ccc2c(c1)N(Cc1c(F)cccc1Cl)C(=O)c1ccccc1S2
AC50 [1]: 15.8 µM [falling, partial curve]

CCc1ccc(N2C(=O)N(CC(=O)C(C)(C)C)c3ccccc3S2(=O)=O)cc1
AC50 [1]: 3.16 µM [falling, single point]

Nc1c(NCc2ccccc2)c2ccccc2oc1=O
AC50 [1]: 20 µM [falling, single point]

COc1ccc(CCNC(=O)Cn2nc(C)c3c(C)n(-c4ccc(C)cc4)nc3c2=O)c(OC)c1
AC50 [1]: 6.31 µM [falling, partial curve]

CC(=O)c1cc2c(cc1NC(=O)CCc1ccccc1)OCO2
AC50 [1]: 20 µM [falling, single point]

CCn1c(=O)cc(SCC(=O)N2CCN(c3ccccc3OC)CC2)c2ccccc21
AC50 [1]: 15.8 µM [falling, partial curve]

CCC(c1nnnn1Cc1ccco1)N(Cc1cc2cc(OC)ccc2[nH]c1=O)C1CCCCC1 (stereo not drawn)
AC50 [1]: 31.6 µM [falling, single point]
